Test results taken from the supplement of paper PMC12259267, “Disruption of the KLHL37–N-Myc complex restores N-Myc degradation and arrests neuroblastoma growth in mouse models” (The Journal of Clinical Investigation, 2025).
Counter-ions that a name gives are not always drawn. This is one part of the list. Repeats are few or missing, and single values can be far off. Peptide text beside a SMILES is read from it. * marks the point of attachment. Cbz = O=C(OCc1ccccc1)*

Tested on: SK-N-BE(2)
Test: inhibition of N-Myc immunofluorescence signal per cell relative to control (fraction); higher = stronger N-Myc protein reduction
Details: 1 µM; 9 h

| Structure (SMILES) | inhibition of N-Myc immunofluorescence signal per cell |
| --- | --- |
| O=C[C@@H](O)[C@@H](O)[C@H](O)[C@H](O)CO [D-Mannose] | -0.182 |
| CCn1c2ccccc2c2cc(CNCc3ccccc3OC)ccc21 [HLCL-61 (hydrochloride)] | -0.287 |
| CCCCCCCc1ccc(CCc2cccc(O)c2C(=O)O)cc1 | -0.153 |
| Cc1cc(C)c(CNC(=O)c2cc(-c3ccc(CN4CCOCC4)cc3)cc3c2cnn3C2CCCC2)c(=O)[nH]1 | -0.0544 |
| Cc1cc(C)cc(Oc2ccc(CNC(=O)[C@H](C)N)cc2C)c1 | -0.016 |
| Cc1cc(C(=O)CN2CCCCC2)c(C)n1-c1ccc(Cl)cc1 | 0.0258 |
| O=C(O)c1ccc(CN2CCC(CN[C@@H]3C[C@H]3c3ccccc3)CC2)cc1 | 0.0778 |
| NC(=O)C1CCCc2c1[nH]c1ccc(Cl)cc21 (stereo not given) [Selisistat] | -0.0809 |
| CC(C)(C)OC(=O)CCCCCCCCOc1cccc2c1C(=O)N(C1CCC(=O)NC1=O)C2=O (stereo not given) [Thalidomide-O-C8-Boc] | 0.0773 |
| Nc1ccccc1NC(=O)CCCCCCC(=O)Nc1ccccc1 | -0.158 |
| C=CCO/N=C1\c2ccccc2-c2nc(C#N)c(C#N)nc21 | 0.0338 |
| Nc1nc(=S)c2[nH]cnc2[nH]1 [6-Thioguanine] | 0.102 |
| Nc1ccccc1NC(=O)c1ccc(CNC(=O)OCc2cccnc2)cc1 [Entinostat] | 0.035 |
| CCNCCN(CC)c1nc(Nc2ccc3ncoc3c2)nc(N[C@@H](C)C2CCCCC2)n1 | 0.284 |
| COc1ccc(CN(C(=O)Cc2cccs2)c2cc(OC)c(OC)c(OC)c2)cc1 | 0.346 |
| NCCCC(O)(P(=O)(O)O)P(=O)(O)O [Alendronate (sodium hydrate)] | 0.24 |
| O=C1CC[C@H](N2Cc3c(OCc4ccc(CN5CCOCC5)cc4)cccc3C2=O)C(=O)N1 [Iberdomide] | 0.168 |
| Nc1cccc2c1CN(C1CCC(=O)NC1=O)C2=O (stereo not given) [Lenalidomide] | 0.208 |

Reformatted: entries from further up.
Structure (SMILES),inhibition of N-Myc immunofluorescence signal per cell
Cc1cc(C(=O)CN2CCCCC2)c(C)n1-c1ccc(Cl)cc1,0.0258
NCCCC(O)(P(=O)(O)O)P(=O)(O)O [Alendronate (sodium hydrate)],0.24

The list goes on:

| Structure (SMILES) | inhibition of N-Myc immunofluorescence signal per cell |
| --- | --- |
| O=C(CCCCCCC(=O)NO)NO [Suberoyl bis-hydroxamic acid] | 0.0966 |
| COc1ccc(C2=N[C@@H](c3ccc(Cl)cc3)[C@@H](c3ccc(Cl)cc3)N2C(=O)N2CCNC(=O)C2)c(OC(C)C)c1 [Nutlin-3a] | 0.178 |
| Cc1cc([C@H](C(=O)N2C[C@H](O)C[C@H]2C(=O)N[C@@H](CC(=O)O)c2ccccc2)C(C)C)on1 [VHL Ligand 8] | 0.186 |
| CC(=O)Nc1ccc(C(=O)Nc2ccc(F)cc2N)cc1 | 0.00811 |
| CC(C)C[C@H](NC(=O)C(C)(C)NC(=O)c1ccccc1C(F)(F)F)B(O)O | 0.152 |
| CN1CCN(c2ccc(-c3cccc(CN4CCOCC4)c3)cc2NC(=O)c2c[nH]c(=O)cc2C(F)(F)F)CC1 | 0.000296 |
| NS(=O)(=O)OC[C@@H]1C[C@@H](n2ccc3c(N[C@H]4CCc5ccccc54)ncnc32)C[C@@H]1O [Pevonedistat hydrochloride] | -0.371 |
| CCCC(=O)[O-].[Na+] [Sodium Butyrate] | 0.0512 |
| O=C(Nc1ccc2c(O)cc(S(=O)(=O)O)cc2c1)Nc1ccc2c(O)cc(S(=O)(=O)O)cc2c1 [AMI-1 (free acid)] | -0.195 |
| CCC(Sc1nnc2c(n1)[nH]c1ccccc12)C(=O)N1c2ccccc2Sc2ccccc21 (stereo not given) [Inauhzin] | -0.0585 |
| Nc1nc(COC(=O)c2ccc([N+](=O)[O-])cc2)nc(Nc2ccccc2)n1 | 0.217 |
| C#Cc1cccc(Nc2ncnc3cc(OC)c(OCCCCCCC(=O)NO)cc23)c1 | -0.231 |
| CC(C(=O)Nc1cccc(/N=C/c2c(O)ccc3ccccc23)c1)c1ccccc1 (stereo not given) [Salermide] | -0.0596 |
| O=C(CCCCCCNC(=O)c1cnc(N(c2ccccc2)c2ccccc2)nc1)NO [Ricolinostat] | -0.0601 |
| Cc1ccc(S(=O)(=O)/C=C/C#N)cc1 | 0.202 |
| CC(=O)N[C@H]1[C@@H](OCc2ccccc2)O[C@H](CO)[C@H](O)[C@@H]1O [Benzyl-α-GalNAc] | -0.0343 |
| CC(C)[C@H](NC(=O)OCc1ccccc1)C(=O)N[C@H](C=O)Cc1ccccc1 (Cbz-Val-Phe-aldehyde) | 0.101 |
